Some entries share one result that the patent states for a list of compounds.
How the values were obtained:
[1] = system: Alternaria solani; assay: Efficacy against early blight of tomato caused by Alternaria solani (Alteso P1), greenhouse; assay type: in vivo; details: 63 ppm, potted tomato plants sprayed one day before inoculation, visual rating after 5 days; untreated plants 90% infected
Procedure: The active compounds were prepared separately or jointly as a stock solution comprising 25 mg of active compound which was made up to 10 ml using a mixture of acetone and/or DMSO and the emulsifier Wettol EM 31 (wetting agent having emulsifying and dispersing action based on ethoxylated alkylphenols) in a volume ratio of solvent/emulsifier of 99:1. The mixture was then made up to 100 ml with water. This stock solution was diluted with the solvent/emulsifier/water mixture described to give the concentration of active compounds stated below. Leaves of potted tomato plants were sprayed to runoff point with an aqueous suspension having the active compound concentration stated below. The next day, the leaves were inoculated with an aqueous spore suspension of Alternaria solani in a 2% biomalt solution. The plants were then placed in a water vapor-saturated chamber at temperatures between 20 and 22° C. After 5 days, the disease on the untreated but infected control plants had developed to such an extent that the infection could be determined visually in %. […]

[2] = system: Botrytis cinerea; assay: Activity against Botrytis cinerea gray mold pathogen in the microtiter test (Botrci); assay type: cell-based; details: 125 ppm, microtiter plate, 405 nm on day 7 after inoculation, relative to active compound-free control
[3] = system: Septoria tritici; assay: Activity against the Septoria leaf blotch pathogen Septoria tritici in the microtiter test (Septtr); assay type: cell-based; details: 125 ppm, microtiter plate, 405 nm on day 7 after inoculation, relative to active compound-free control (100%)

COc1ccc([C@@]2(Cn3cncn3)O[C@@H]2c2ccccc2Cl)c(F)c1 (racemic) [Compound 14.10]
infection [1]: at most 10%

Fc1cc(Cl)ccc1C1(Cn2cncn2)OC1c1ccccc1Cl (stereo not drawn) [Compound 14.7, 1-[(anti-2-(4-chloro-2-fluorophenyl)-3-(2-chlorophenyl)oxiran-2-yl)-methyl]-1H-1,2,4-triazole]
growth (relative growth in % of the pathogens) [2]: not more than 2%
growth (relative growth in % of the pathogens) [3]: not more than 9%

Reference: patent US20120220455A1, “Azolylmethyloxiranes, Their Use for Controlling Phytopathogenic Fungi and Compositions Comprising Them” (BASF SE, priority 2006, published 2012)
